Patent publication US20260242759A1 (Vrije Universiteit Brussel, priority 2022, published 2026)
Positions of bridges follow the written chain, without caps; N, C: chain ends. Non-standard residues stand in square brackets, D forms with d. Triazole bridges read from a SMILES are 1,4-linked. Lys(N3) = [N-]=[N+]=NCCCC[C@H](N)C(=O)O; Cha = N[C@@H](CC1CCCCC1)C(=O)O; Pra = C#CC[C@H](N)C(=O)O

Experiment: general procedure: Fmoc solid-phase peptide synthesis; preloaded Fmoc-Leu-Wang resin (0.6-0.75 mmol/g), Rink Amide resin (0.92 mmol/g), 2-chlorotrityl chloride resin (0.8 mmol); HBTU/DIPEA (manual, Activo-P11); DIC/Oxyma (CEM Liberty Blue)
Settings: whole synthesis, TFA salt

With Ac-FNDCKDIILQMNLREYNLV-OH the isolated yield was 7%.
Work on “Ac-KKKFA[Pra]VKD[Lys(N3)]ILQLNLKEYN[Cha]V-OH (triazole 6-10; SMILES CC[C@H](C)[C@H](NC(=O)[C@@H]1CCCCn2cc(nn2)C[C@H](NC(=O)[C@H](C)NC(=O)[C@H](Cc2ccccc2)NC(=O)[C@H](CCCCN)NC(=O)[C@H](CCCCN)NC(=O)[C@H](CCCCN)NC(C)=O)C(=O)N[C@@H](C(C)C)C(=O)N[C@@H](CCCCN)C(=O)N[C@@H](CC(=O)O)C(=O)N1)C(=O)N[C@@H](CC(C)C)C(=O)N[C@@H](CCC(N)=O)C(=O)N[C@@H](CC(C)C)C(=O)N[C@@H](CC(N)=O)C(=O)N[C@@H](CC(C)C)C(=O)N[C@@H](CCCCN)C(=O)N[C@@H](CCC(=O)O)C(=O)N[C@@H](Cc1ccc(O)cc1)C(=O)N[C@@H](CC(N)=O)C(=O)N[C@@H](CC1CCCCC1)C(=O)N[C@H](C(=O)O)C(C)C)” yielded an isolated yield of 33%.
Work on “Ac-FNDCKDIILQMNLREYN[Cha]V-OH (SMILES CC[C@H](C)[C@H](NC(=O)[C@H](CC(=O)O)NC(=O)[C@H](CCCCN)NC(=O)[C@H](CS)NC(=O)[C@H](CC(=O)O)NC(=O)[C@H](CC(N)=O)NC(=O)[C@H](Cc1ccccc1)NC(C)=O)C(=O)N[C@H](C(=O)N[C@@H](CC(C)C)C(=O)N[C@@H](CCC(N)=O)C(=O)N[C@@H](CCSC)C(=O)N[C@@H](CC(N)=O)C(=O)N[C@@H](CC(C)C)C(=O)N[C@@H](CCCNC(=N)N)C(=O)N[C@@H](CCC(=O)O)C(=O)N[C@@H](Cc1ccc(O)cc1)C(=O)N[C@@H](CC(N)=O)C(=O)N[C@@H](CC1CCCCC1)C(=O)N[C@H](C(=O)O)C(C)C)[C@@H](C)CC)” yielded an isolated yield of 3%.
Substance “Ac-KKKFAAVKDTILQLNLKEYN[Cha]V-OH (SMILES CC[C@H](C)[C@H](NC(=O)[C@@H](NC(=O)[C@H](CC(=O)O)NC(=O)[C@H](CCCCN)NC(=O)[C@@H](NC(=O)[C@H](C)NC(=O)[C@H](C)NC(=O)[C@H](Cc1ccccc1)NC(=O)[C@H](CCCCN)NC(=O)[C@H](CCCCN)NC(=O)[C@H](CCCCN)NC(C)=O)C(C)C)[C@@H](C)O)C(=O)N[C@@H](CC(C)C)C(=O)N[C@@H](CCC(N)=O)C(=O)N[C@@H](CC(C)C)C(=O)N[C@@H](CC(N)=O)C(=O)N[C@@H](CC(C)C)C(=O)N[C@@H](CCCCN)C(=O)N[C@@H](CCC(=O)O)C(=O)N[C@@H](Cc1ccc(O)cc1)C(=O)N[C@@H](CC(N)=O)C(=O)N[C@@H](CC1CCCCC1)C(=O)N[C@H](C(=O)O)C(C)C)” has an isolated yield of 14%.
Substance “Ac-KKKFN[Pra]CKD[Lys(N3)]ILQMNLREYNLV-OH (triazole 6-10; SMILES CC[C@H](C)[C@H](NC(=O)[C@@H]1CCCCn2cc(nn2)C[C@H](NC(=O)[C@H](CC(N)=O)NC(=O)[C@H](Cc2ccccc2)NC(=O)[C@H](CCCCN)NC(=O)[C@H](CCCCN)NC(=O)[C@H](CCCCN)NC(C)=O)C(=O)N[C@@H](CS)C(=O)N[C@@H](CCCCN)C(=O)N[C@@H](CC(=O)O)C(=O)N1)C(=O)N[C@@H](CC(C)C)C(=O)N[C@@H](CCC(N)=O)C(=O)N[C@@H](CCSC)C(=O)N[C@@H](CC(N)=O)C(=O)N[C@@H](CC(C)C)C(=O)N[C@@H](CCCNC(=N)N)C(=O)N[C@@H](CCC(=O)O)C(=O)N[C@@H](Cc1ccc(O)cc1)C(=O)N[C@@H](CC(N)=O)C(=O)N[C@@H](CC(C)C)C(=O)N[C@H](C(=O)O)C(C)C)” has an isolated yield of 10%.
Substance Ac-KKKFNDCKDIILQMNLREYNLV-OH has an isolated yield of 11%.
“Ac-FAAVKDTILQLNLKEYN[Cha]V-OH (SMILES CC[C@H](C)[C@H](NC(=O)[C@@H](NC(=O)[C@H](CC(=O)O)NC(=O)[C@H](CCCCN)NC(=O)[C@@H](NC(=O)[C@H](C)NC(=O)[C@H](C)NC(=O)[C@H](Cc1ccccc1)NC(C)=O)C(C)C)[C@@H](C)O)C(=O)N[C@@H](CC(C)C)C(=O)N[C@@H](CCC(N)=O)C(=O)N[C@@H](CC(C)C)C(=O)N[C@@H](CC(N)=O)C(=O)N[C@@H](CC(C)C)C(=O)N[C@@H](CCCCN)C(=O)N[C@@H](CCC(=O)O)C(=O)N[C@@H](Cc1ccc(O)cc1)C(=O)N[C@@H](CC(N)=O)C(=O)N[C@@H](CC1CCCCC1)C(=O)N[C@H](C(=O)O)C(C)C)” showed an isolated yield of 7%.
Ac-FAAVKDTILQLNLKEYNLV-OH gave an isolated yield of 17%.
For “Ac-KKKFA[Pra]VKD[Lys(N3)]ILQLNLKEYNLV-OH (triazole 6-10; SMILES CC[C@H](C)[C@H](NC(=O)[C@@H]1CCCCn2cc(nn2)C[C@H](NC(=O)[C@H](C)NC(=O)[C@H](Cc2ccccc2)NC(=O)[C@H](CCCCN)NC(=O)[C@H](CCCCN)NC(=O)[C@H](CCCCN)NC(C)=O)C(=O)N[C@@H](C(C)C)C(=O)N[C@@H](CCCCN)C(=O)N[C@@H](CC(=O)O)C(=O)N1)C(=O)N[C@@H](CC(C)C)C(=O)N[C@@H](CCC(N)=O)C(=O)N[C@@H](CC(C)C)C(=O)N[C@@H](CC(N)=O)C(=O)N[C@@H](CC(C)C)C(=O)N[C@@H](CCCCN)C(=O)N[C@@H](CCC(=O)O)C(=O)N[C@@H](Cc1ccc(O)cc1)C(=O)N[C@@H](CC(N)=O)C(=O)N[C@@H](CC(C)C)C(=O)N[C@H](C(=O)O)C(C)C)”, the isolated yield was 12%.
In the case of “Ac-KKKFN[Pra]CKD[Lys(N3)]ILQMNLREYN[Cha]V-OH (triazole 6-10; SMILES CC[C@H](C)[C@H](NC(=O)[C@@H]1CCCCn2cc(nn2)C[C@H](NC(=O)[C@H](CC(N)=O)NC(=O)[C@H](Cc2ccccc2)NC(=O)[C@H](CCCCN)NC(=O)[C@H](CCCCN)NC(=O)[C@H](CCCCN)NC(C)=O)C(=O)N[C@@H](CS)C(=O)N[C@@H](CCCCN)C(=O)N[C@@H](CC(=O)O)C(=O)N1)C(=O)N[C@@H](CC(C)C)C(=O)N[C@@H](CCC(N)=O)C(=O)N[C@@H](CCSC)C(=O)N[C@@H](CC(N)=O)C(=O)N[C@@H](CC(C)C)C(=O)N[C@@H](CCCNC(=N)N)C(=O)N[C@@H](CCC(=O)O)C(=O)N[C@@H](Cc1ccc(O)cc1)C(=O)N[C@@H](CC(N)=O)C(=O)N[C@@H](CC1CCCCC1)C(=O)N[C@H](C(=O)O)C(C)C)”, the isolated yield is reported as 11%.
Work on Ac-KKKFAAVKDTILQLNLKEYNLV-OH yielded an isolated yield of 19%.
Work on “Ac-KKKFNDCKDIILQMNLREYN[Cha]V-OH (SMILES CC[C@H](C)[C@H](NC(=O)[C@H](CC(=O)O)NC(=O)[C@H](CCCCN)NC(=O)[C@H](CS)NC(=O)[C@H](CC(=O)O)NC(=O)[C@H](CC(N)=O)NC(=O)[C@H](Cc1ccccc1)NC(=O)[C@H](CCCCN)NC(=O)[C@H](CCCCN)NC(=O)[C@H](CCCCN)NC(C)=O)C(=O)N[C@H](C(=O)N[C@@H](CC(C)C)C(=O)N[C@@H](CCC(N)=O)C(=O)N[C@@H](CCSC)C(=O)N[C@@H](CC(N)=O)C(=O)N[C@@H](CC(C)C)C(=O)N[C@@H](CCCNC(=N)N)C(=O)N[C@@H](CCC(=O)O)C(=O)N[C@@H](Cc1ccc(O)cc1)C(=O)N[C@@H](CC(N)=O)C(=O)N[C@@H](CC1CCCCC1)C(=O)N[C@H](C(=O)O)C(C)C)[C@@H](C)CC)” yielded an isolated yield of 11%.
